These are yes or no findings as the source states them, for the method shown. Some results given as binding are weak or reduced against the parent protein; the word gives no strength. Where a sequence is shown, tags or fusion partners need not be part of it.
These substances were tested against T1, GAL4-DNA-binding domain (BD) fused to the C-terminus of desmoplakin (UniProt P15924) (assay: two-hybrid; yeast three-hybrid: GAL4-BD-DSP C-terminus with co-expressed K5 and K14 constructs; growth on medium without histidine or without adenine).
T1 sequence: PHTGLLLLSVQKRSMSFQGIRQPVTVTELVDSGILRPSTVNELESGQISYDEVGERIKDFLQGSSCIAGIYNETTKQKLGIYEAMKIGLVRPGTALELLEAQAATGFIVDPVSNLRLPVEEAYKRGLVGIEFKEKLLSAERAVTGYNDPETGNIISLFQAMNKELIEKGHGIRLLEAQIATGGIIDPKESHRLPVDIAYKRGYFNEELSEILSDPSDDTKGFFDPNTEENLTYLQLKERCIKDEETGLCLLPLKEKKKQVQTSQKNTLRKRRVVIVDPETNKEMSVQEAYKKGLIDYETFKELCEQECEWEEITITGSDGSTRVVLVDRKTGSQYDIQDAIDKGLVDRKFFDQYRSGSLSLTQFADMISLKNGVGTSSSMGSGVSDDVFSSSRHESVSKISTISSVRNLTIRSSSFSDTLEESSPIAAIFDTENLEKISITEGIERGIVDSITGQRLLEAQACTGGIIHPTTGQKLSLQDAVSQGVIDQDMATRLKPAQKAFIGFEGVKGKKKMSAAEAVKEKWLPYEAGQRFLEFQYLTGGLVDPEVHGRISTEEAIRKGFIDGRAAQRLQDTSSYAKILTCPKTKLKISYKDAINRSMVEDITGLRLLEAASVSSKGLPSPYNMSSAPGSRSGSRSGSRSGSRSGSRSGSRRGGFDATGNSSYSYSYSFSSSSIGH

Sequences of proteins named here, by UniProt entry; tags and fusion partners are left off. A change or cut given only in a name is not applied to a line headed by its entry.
UniProt P13647: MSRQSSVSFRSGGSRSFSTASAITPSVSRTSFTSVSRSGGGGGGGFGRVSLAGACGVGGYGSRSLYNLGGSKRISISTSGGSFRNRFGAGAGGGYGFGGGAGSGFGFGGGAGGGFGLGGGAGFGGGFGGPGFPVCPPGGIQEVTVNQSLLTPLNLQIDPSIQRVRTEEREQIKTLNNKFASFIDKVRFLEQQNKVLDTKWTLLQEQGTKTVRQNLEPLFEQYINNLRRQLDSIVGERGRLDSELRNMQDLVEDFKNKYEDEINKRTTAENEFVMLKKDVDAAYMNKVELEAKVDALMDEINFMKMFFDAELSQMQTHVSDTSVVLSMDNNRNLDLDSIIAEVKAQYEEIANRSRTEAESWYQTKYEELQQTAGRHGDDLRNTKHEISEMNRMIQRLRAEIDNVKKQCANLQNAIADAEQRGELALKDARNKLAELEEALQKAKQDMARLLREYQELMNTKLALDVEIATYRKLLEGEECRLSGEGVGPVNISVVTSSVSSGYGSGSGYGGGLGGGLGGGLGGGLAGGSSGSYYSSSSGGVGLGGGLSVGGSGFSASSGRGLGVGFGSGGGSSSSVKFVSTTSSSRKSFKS

| Substance | binding |
| --- | --- |
| K5 p.(Asn177Ser) with wild-type K14 (Y3H) (from UniProt P13647 1-590; P02533 1-472) (complex) | binds |
| K5 p.(Leu311Arg) with wild-type K14 (Y3H) (from UniProt P13647 1-590; P02533 1-472) (complex) | binds |
| K14 p.(Arg125His) with wild-type K5 (Y3H) (from UniProt P13647 1-590; P02533 1-472) (complex) | binds |
| K14 p.(Leu284Pro) with wild-type K5 (Y3H) (from UniProt P13647 1-590; P02533 1-472) (complex) | binds |
| K14 p.(Val270Met) with wild-type K5 (Y3H) (from UniProt P13647 1-590; P02533 1-472) (complex) | binds |

Next, values leading:

| binding | Substance |
| --- | --- |
| binds | K5 p.(Asn176Ser) with wild-type K14 (Y3H) (from UniProt P13647 1-590; P02533 1-472) (complex) |
| binds | K5 p.(Glu168Asp) with wild-type K14 (Y3H) (from UniProt P13647 1-590; P02533 1-472) (complex) |
| binds | K5 p.(Glu168Gln) with wild-type K14 (Y3H) (from UniProt P13647 1-590; P02533 1-472) (complex) |
| binds | K5/K14 co-expressed in yeast (wild type, Y3H) (from UniProt P13647 1-590; P02533 1-472) (complex) |
| binds | K14 p.(Ile176Met) with wild-type K5 (Y3H) (from UniProt P13647 1-590; P02533 1-472) (complex) |
